# Laboratory results from the supplement of paper PMC8728848.
# Some of the results follow.
# Tests used:
# Assay in all cases: glycan array binding signal (z-score within array); higher = stronger binding
# Details in all cases: glycan notation: IUPAC condensed, linker removed
# [1] = biological target: Gal(b1-4)GlcNAc(b1-3)Gal(b1-4)GlcNAc(b1-2)[Gal(b1-4)GlcNAc(b1-3)Gal(b1-4)GlcNAc(b1-6)]Man(a1-6)[Gal(b1-4)GlcNAc(b1-3)Gal(b1-4)GlcNAc(b1-2)Man(a1-3)]Man(b1-4)GlcNAc(b1-4)GlcNAc
# In short: (§1)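 The binding signal is a Z-score computed within each array. Data were drawn from 3228 arrays in the Consortium for Functional Glycomics database, restricted to those with a known protein sequence. Scores were averaged over arrays of the same protein sequence at different concentrations or buffers, and over linkers, and negative values can be taken as non-binding.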
# [2] = biological target: Gal(b1-4)GlcNAc(b1-3)Gal(b1-4)GlcNAc(b1-2)[Gal(b1-4)GlcNAc(b1-3)Gal(b1-4)GlcNAc(b1-6)]Man(a1-6)[Gal(b1-4)GlcNAc(b1-3)Gal(b1-4)GlcNAc(b1-2)Man(a1-3)]Man(b1-4)GlcNAc(b1-4)[Fuc(a1-6)]GlcNAc
# In short: as §1
# [3] = biological target: Gal(b1-4)GlcNAc(b1-3)Gal(b1-4)GlcNAc(b1-3)Gal(b1-4)GlcNAc
# In short: as §1
# [4] = biological target: Gal(b1-4)GlcNAc(b1-3)Gal(b1-4)GlcNAc(b1-3)Gal(b1-4)GlcNAc(b1-2)Man(a1-3)[Gal(b1-4)GlcNAc(b1-3)Gal(b1-4)GlcNAc(b1-3)Gal(b1-4)GlcNAc(b1-2)Man(a1-6)]Man(b1-4)GlcNAc(b1-4)GlcNAc
# In short: as §1
# [5] = biological target: Gal(b1-4)GlcNAc(b1-3)Gal(b1-4)GlcNAc(b1-3)Gal(b1-4)GlcNAc(b1-2)Man(a1-3)[Gal(b1-4)GlcNAc(b1-3)Gal(b1-4)GlcNAc(b1-3)Gal(b1-4)GlcNAc(b1-2)Man(a1-6)]Man(b1-4)GlcNAc(b1-4)[Fuc(a1-6)]GlcNAc
# In short: as §1
# [6] = biological target: Gal(b1-4)GlcNAc(b1-3)Gal(b1-4)GlcNAc(b1-3)Gal(b1-4)GlcNAc(b1-2)[Gal(b1-4)GlcNAc(b1-3)Gal(b1-4)GlcNAc(b1-3)Gal(b1-4)GlcNAc(b1-6)]Man(a1-6)[Gal(b1-4)GlcNAc(b1-3)Gal(b1-4)GlcNAc(b1-3)Gal(b1-4)GlcNAc(b1-2)Man(a1-3)]Man(b1-4)GlcNAc(b1-4)[Fuc(a1-6)]GlcNAc
# In short: as §1
# [7] = biological target: Gal(b1-4)GlcNAc(b1-3)Gal(b1-4)GlcNAc(b1-3)Gal(b1-4)GlcNAc(b1-3)Gal(b1-4)GlcNAc(b1-2)Man(a1-3)[Gal(b1-4)GlcNAc(b1-3)Gal(b1-4)GlcNAc(b1-3)Gal(b1-4)GlcNAc(b1-3)Gal(b1-4)GlcNAc(b1-2)Man(a1-6)]Man(b1-4)GlcNAc(b1-4)GlcNAc
# In short: as §1
# [8] = biological target: Gal(b1-4)GlcNAc(b1-3)Gal(b1-4)GlcNAc(b1-3)Gal(b1-4)GlcNAc(b1-3)Gal(b1-4)GlcNAc(b1-2)Man(a1-3)[Gal(b1-4)GlcNAc(b1-3)Gal(b1-4)GlcNAc(b1-3)Gal(b1-4)GlcNAc(b1-3)Gal(b1-4)GlcNAc(b1-2)Man(a1-6)]Man(b1-4)GlcNAc(b1-4)[Fuc(a1-6)]GlcNAc
# In short: as §1
# [9] = biological target: Gal(b1-4)GlcNAc(b1-3)Gal(b1-4)GlcNAc(b1-3)Gal(b1-4)GlcNAc(b1-3)Gal(b1-4)GlcNAc(b1-2)[Gal(b1-4)GlcNAc(b1-3)Gal(b1-4)GlcNAc(b1-3)Gal(b1-4)GlcNAc(b1-3)Gal(b1-4)GlcNAc(b1-6)]Man(a1-6)[Gal(b1-4)GlcNAc(b1-3)Gal(b1-4)GlcNAc(b1-3)Gal(b1-4)GlcNAc(b1-3)Gal(b1-4)GlcNAc(b1-2)Man(a1-3)]Man(b1-4)GlcNAc(b1-4)[Fuc(a1-6)]GlcNAc
# In short: as §1
# [10] = biological target: Gal(b1-4)GlcNAc(b1-3)Gal(b1-4)GlcNAc(b1-3)Gal(b1-4)GlcNAc(b1-3)Gal(b1-4)GlcNAc(b1-3)Gal(b1-4)GlcNAc(b1-2)Man(a1-3)[Gal(b1-4)GlcNAc(b1-3)Gal(b1-4)GlcNAc(b1-3)Gal(b1-4)GlcNAc(b1-3)Gal(b1-4)GlcNAc(b1-3)Gal(b1-4)GlcNAc(b1-2)Man(a1-6)]Man(b1-4)GlcNAc(b1-4)GlcNAc
# In short: as §1
# [11] = biological target: Gal(b1-4)GlcNAc(b1-3)Gal(b1-4)GlcNAc(b1-3)Gal(b1-4)GlcNAc(b1-3)Gal(b1-4)GlcNAc(b1-3)Gal(b1-4)GlcNAc(b1-2)Man(a1-3)[Gal(b1-4)GlcNAc(b1-3)Gal(b1-4)GlcNAc(b1-3)Gal(b1-4)GlcNAc(b1-3)Gal(b1-4)GlcNAc(b1-3)Gal(b1-4)GlcNAc(b1-2)Man(a1-6)]Man(b1-4)GlcNAc(b1-4)[Fuc(a1-6)]GlcNAc
# In short: as §1
# [12] = biological target: Gal(b1-4)GlcNAc(b1-3)Gal(b1-4)GlcNAc(b1-3)Gal(b1-4)GlcNAc(b1-3)Gal(b1-4)GlcNAc(b1-3)Gal(b1-4)GlcNAc(b1-2)[Gal(b1-4)GlcNAc(b1-3)Gal(b1-4)GlcNAc(b1-3)Gal(b1-4)GlcNAc(b1-3)Gal(b1-4)GlcNAc(b1-3)Gal(b1-4)GlcNAc(b1-6)]Man(a1-6)[Gal(b1-4)GlcNAc(b1-3)Gal(b1-4)GlcNAc(b1-3)Gal(b1-4)GlcNAc(b1-3)Gal(b1-4)GlcNAc(b1-3)Gal(b1-4)GlcNAc(b1-2)Man(a1-3)]Man(b1-4)GlcNAc(b1-4)[Fuc(a1-6)]GlcNAc
# In short: as §1
# [13] = biological target: Gal(b1-4)GlcNAc(b1-3)Gal(b1-4)GlcNAc(b1-3)Gal(b1-4)GlcNAc(b1-3)Gal(b1-4)GlcNAc(b1-3)Gal(b1-4)GlcNAc(b1-3)Gal(b1-4)GlcNAc(b1-2)Man(a1-3)[Gal(b1-4)GlcNAc(b1-3)Gal(b1-4)GlcNAc(b1-3)Gal(b1-4)GlcNAc(b1-3)Gal(b1-4)GlcNAc(b1-3)Gal(b1-4)GlcNAc(b1-3)Gal(b1-4)GlcNAc(b1-2)Man(a1-6)]Man(b1-4)GlcNAc(b1-4)GlcNAc
# In short: as §1
# [14] = biological target: Gal(b1-4)GlcNAc(b1-3)Gal(b1-4)GlcNAc(b1-3)GalNAc
# In short: as §1
# [15] = biological target: Gal(b1-4)GlcNAc(b1-3)Gal(b1-4)GlcNAc(b1-3)[Gal(b1-4)GlcNAc(b1-3)Gal(b1-4)GlcNAc(b1-6)]GalNAc
# In short: as §1
# [16] = biological target: Gal(b1-4)GlcNAc(b1-3)Gal(b1-4)GlcNAc(b1-6)[Gal(b1-3)]GalNAc
# In short: as §1
# [17] = biological target: Gal(b1-4)GlcNAc(b1-3)Gal(b1-4)[Fuc(a1-3)]GlcNAc(b1-3)Gal(b1-4)[Fuc(a1-3)]GlcNAc
# In short: as §1
# [18] = biological target: Gal(b1-4)GlcNAc(b1-3)GalNAc
# In short: as §1
# [19] = biological target: Gal(b1-4)GlcNAc(b1-3)[Fuc(a1-3)GlcNAc(b1-6)]Gal(b1-4)Glc
# In short: as §1
# [20] = biological target: Gal(b1-4)GlcNAc(b1-3)[Gal(b1-4)GlcNAc(b1-6)]Gal(b1-4)GlcNAc
# In short: as §1
# [21] = biological target: Gal(b1-4)GlcNAc(b1-3)[GlcNAc(b1-6)]Gal(b1-4)GlcNAc
# In short: as §1
# [22] = biological target: Gal(b1-4)GlcNAc(b1-6)Gal(b1-4)GlcNAc
# In short: as §1
# [23] = biological target: Gal(b1-4)GlcNAc(b1-6)GalNAc
# In short: as §1
# [24] = biological target: Gal(b1-4)GlcNAc(b1-6)[Gal(b1-3)]GalNAc
# In short: as §1
# [25] = biological target: Gal(b1-4)GlcNAc(b1-6)[Gal(b1-4)GlcNAc(b1-3)]GalNAc
# In short: as §1
# [26] = biological target: Gal(b1-4)GlcNAc6P
# In short: as §1
# [27] = biological target: Gal(b1-6)Gal
# In short: as §1
# [28] = biological target: Gal3S(b1-3)GalNAc
# In short: as §1
# [29] = biological target: Gal3S(b1-3)GlcNAc
# In short: as §1
# [30] = biological target: Gal3S(b1-3)[Fuc(a1-4)]GlcNAc
# In short: as §1
# [31] = biological target: Gal3S(b1-4)Glc
# In short: as §1
# [32] = biological target: Gal3S(b1-4)Glc6S
# In short: as §1
# [33] = biological target: Gal3S(b1-4)GlcNAc
# In short: as §1
# [34] = biological target: Gal3S(b1-4)[Fuc(a1-3)]Glc6S
# In short: as §1
# [35] = biological target: Gal3S(b1-4)[Fuc(a1-3)]GlcNAc
# In short: as §1
# [36] = biological target: Gal3S(b1-4)[Fuc(a1-3)]GlcNAc6S
# In short: as §1
# [37] = biological target: Gal3S4S(b1-4)GlcNAc
# In short: as §1
# [38] = biological target: Gal3S6S(b1-4)GlcNAc
# In short: as §1
# [39] = biological target: Gal3S6S(b1-4)GlcNAc6S
# In short: as §1
# [40] = biological target: Gal4S(b1-4)GlcNAc
# In short: as §1
# [41] = biological target: Gal4S6S(b1-4)GlcNAc
# In short: as §1
# [42] = biological target: Gal6P(b1-4)GlcNAc
# In short: as §1
# [43] = biological target: Gal6S(b1-3)GlcNAc
# In short: as §1
# [44] = biological target: Gal6S(b1-3)GlcNAc6S
# In short: as §1
# [45] = biological target: Gal6S(b1-4)Glc
# In short: as §1
binder,measurement,setting,value
GS7807F-bth-514-18-514 (Bacteroides thetaiotaomicron) (protein) AGSCTGNFEEYNTNQFQIHEADPSTLMKSMIETIVNIQQNDSQMMDQMVGQLGGYLTCANVWSGTNFGTFNQSDAWNAGPWNTNFEKIYGNFFQIQEATNESGHYYAFARMIRAITMLRVADCYGPMPYSQVKKGNFYVAYDTEEQVYKNIMEDFASAANVLYNYYKDTNGNAPLASNDPVFSGNYANWARLANSMRLRVAIRISTAYPEMAKENAEAAASHEAGLIEANNDNAMMDCGSQTNPYQLAAVSWGDLRVNANIVDYMNGYGDPRMSKYFNHSTFTGHTQEYVGMRSGEDGFAKSDVAGYSIPAITGTSKLLVFCAAETAFLRAEGKLKNWSVGNKSAKEYYEEGIKLSMEQYGTTMPDNYLTNTEKPTVSHNNDPRGHAYTISNTVAVAWNDNNEEENLQRIITQKWIANYPLGLEAWAEYRRTGYPELYPCIDNLSPSGVDSKRGMRRLRFPYTEVQNNHSNYQQGVSYLKNGGPDNEATDLSWGKTN,glycan array binding signal (z-score),[1],2.49
same,glycan array binding signal (z-score),[2],2.82
same,glycan array binding signal (z-score),[3],0.584
same,glycan array binding signal (z-score),[4],0.809
same,glycan array binding signal (z-score),[5],0.542
same,glycan array binding signal (z-score),[6],3.25
same,glycan array binding signal (z-score),[7],0.65
same,glycan array binding signal (z-score),[8],0.046
same,glycan array binding signal (z-score),[9],2.03
same,glycan array binding signal (z-score),[10],4.26
same,glycan array binding signal (z-score),[11],2.27
same,glycan array binding signal (z-score),[12],1.76
same,glycan array binding signal (z-score),[13],3.26
same,glycan array binding signal (z-score),[14],2.5
same,glycan array binding signal (z-score),[15],3.96
same,glycan array binding signal (z-score),[16],1.15
same,glycan array binding signal (z-score),[17],0.091
same,glycan array binding signal (z-score),[18],-0.61
same,glycan array binding signal (z-score),[19],1.53
same,glycan array binding signal (z-score),[20],0.003
same,glycan array binding signal (z-score),[21],0.49
same,glycan array binding signal (z-score),[22],1.94
same,glycan array binding signal (z-score),[23],-0.041
same,glycan array binding signal (z-score),[24],1.34
same,glycan array binding signal (z-score),[25],0.25
same,glycan array binding signal (z-score),[26],0.499
same,glycan array binding signal (z-score),[27],1.37
same,glycan array binding signal (z-score),[28],-0.485
same,glycan array binding signal (z-score),[29],-0.663
same,glycan array binding signal (z-score),[30],-0.143
same,glycan array binding signal (z-score),[31],0.164
same,glycan array binding signal (z-score),[32],-0.587
same,glycan array binding signal (z-score),[33],-0.675
same,glycan array binding signal (z-score),[34],3.48
same,glycan array binding signal (z-score),[35],-0.367
same,glycan array binding signal (z-score),[36],0.016
same,glycan array binding signal (z-score),[37],-0.686
same,glycan array binding signal (z-score),[38],-0.702
same,glycan array binding signal (z-score),[39],-0.25
same,glycan array binding signal (z-score),[40],-0.819
same,glycan array binding signal (z-score),[41],-0.896
same,glycan array binding signal (z-score),[42],-0.69
same,glycan array binding signal (z-score),[43],1.38
same,glycan array binding signal (z-score),[44],-0.844
same,glycan array binding signal (z-score),[45],0.199

# Taken from above for reference:
binder,measurement,setting,value
GS7807F-bth-514-18-514 (Bacteroides thetaiotaomicron) (protein) AGSCTGNFEEYNTNQFQIHEADPSTLMKSMIETIVNIQQNDSQMMDQMVGQLGGYLTCANVWSGTNFGTFNQSDAWNAGPWNTNFEKIYGNFFQIQEATNESGHYYAFARMIRAITMLRVADCYGPMPYSQVKKGNFYVAYDTEEQVYKNIMEDFASAANVLYNYYKDTNGNAPLASNDPVFSGNYANWARLANSMRLRVAIRISTAYPEMAKENAEAAASHEAGLIEANNDNAMMDCGSQTNPYQLAAVSWGDLRVNANIVDYMNGYGDPRMSKYFNHSTFTGHTQEYVGMRSGEDGFAKSDVAGYSIPAITGTSKLLVFCAAETAFLRAEGKLKNWSVGNKSAKEYYEEGIKLSMEQYGTTMPDNYLTNTEKPTVSHNNDPRGHAYTISNTVAVAWNDNNEEENLQRIITQKWIANYPLGLEAWAEYRRTGYPELYPCIDNLSPSGVDSKRGMRRLRFPYTEVQNNHSNYQQGVSYLKNGGPDNEATDLSWGKTN,glycan array binding signal (z-score),[9],2.03
same,glycan array binding signal (z-score),[10],4.26
